According to PubChem BioAssay AID540276 (National Center for Advancing Translational Sciences (NCATS), 2011):
In all, about 300,000 compounds went through this assay and about 5,400 (1.8%) were called active. The shares of active, inactive and inconclusive entries below differ from those in the screen. Calls come from the whole dose curve; tested in HEK293 cells. Where the call is inconclusive, the potency comes from a doubtful curve fit.

assay: qHTS for inhibitors of binding or entry into cells for Marburg Virus; details: Marburg virus pseudotyped entry inhibition, cell reporter; series mostly up to 37.8 µM
Potency is the fitted concentration of half-maximal effect.

Row | SMILES | Potency
1 | CN(C)C(=O)c1ccc(NC(=O)CN2CCc3cc4c(cc3C2)OCCCO4)cc1 | inconclusive: 2.82 µM [activator, full curve, poor fit]
2 | O=C(CSc1nc(-c2ccccc2)cs1)NCc1ccco1 | inconclusive: 5.62 µM [inhibitor, single point]
3 | COC(=O)c1c(NC(=O)/C=C/C(=O)O)sc(C)c1-c1ccc(C(C)C)cc1 | inactive
4 | COc1cccc(/C=N/NC(=O)c2c(C)nc3ccc(Br)cn23)c1O | active: 1.83 µM
5 | CC1CN(Cc2ccccc2)C(=S)NC1=O (stereo unspecified) | inconclusive: 22.4 µM [activator, single point]
6 | Cn1ccnc1SCC(=O)Nc1cccc(C(F)(F)F)c1 | inactive
7 | COc1ccc(NC(=O)c2ccco2)cc1NC(=O)c1ccccc1[N+](=O)[O-] | inconclusive: 22.4 µM [activator, single point]
8 | Cc1nccc(-c2ccc3c(c2)OCO3)n1 | inactive
9 | Cc1ccc([N+](=O)[O-])cc1S(=O)(=O)NCCc1c(C)[nH]c2ccccc12 | inactive
10 | Cc1cc(C)c(Cn2cnc3ccccc32)c(C)c1 | inconclusive: 1 µM [inhibitor, full curve, poor fit]
11 | COc1ccc(-c2cc(C(=O)NCc3cccnc3)no2)cc1OC | inactive
12 | CN(C)c1ccc(/C=C/C(=O)c2ccccc2O)cc1 | inconclusive: 32.6 µM [inhibitor, single point]
13 | CCOC(=O)c1c(-c2ccc(C)s2)csc1NC(=O)c1ccco1 | inactive
14 | CCN(CC)c1ccc(NC(=S)NC(=O)c2ccco2)cc1 | inactive
15 | Cc1ccc(OCC(=O)OCc2c(C)noc2C)cc1C | inconclusive: 11.2 µM [activator, partial curve, poor fit]
16 | Clc1ccc(OCCn2ccnc2)cc1Cl | inactive
17 | CCOC(=O)c1ccc(N2C(=O)c3n[nH]c(-c4ccco4)c3C2c2ccccc2OC)cc1 (stereo unspecified) | inconclusive: 35.5 µM [inhibitor, single point]
18 | CCOc1ccccc1OCCCC(=O)NNC(=O)c1nn(C)c(=O)c2ccccc12 | inconclusive: 35.5 µM [inhibitor, single point]
19 | CC1(C)OC2CC3C4CC=C5CC(O)CCC5(C)C4CCC3(C)C2(C(=O)CO)O1 (stereo unspecified) | inconclusive: 8.91 µM [activator, partial curve, poor fit]
20 | Cc1cc(N)ccc1NC(=O)c1ccccc1 | inconclusive: 1.16 µM [activator, partial curve, poor fit]
21 | C=CCN1C(=O)NC2(CCCCC2)C1=O | inconclusive: 35.5 µM [activator, partial curve, poor fit]

Nos. 12 to 15 from above:
Row | SMILES | Potency
12 | CN(C)c1ccc(/C=C/C(=O)c2ccccc2O)cc1 | inconclusive: 32.6 µM [inhibitor, single point]
13 | CCOC(=O)c1c(-c2ccc(C)s2)csc1NC(=O)c1ccco1 | inactive
14 | CCN(CC)c1ccc(NC(=S)NC(=O)c2ccco2)cc1 | inactive
15 | Cc1ccc(OCC(=O)OCc2c(C)noc2C)cc1C | inconclusive: 11.2 µM [activator, partial curve, poor fit]
